Assay results taken from PubChem BioAssay AID540256 (National Center for Advancing Translational Sciences (NCATS), 2011).
Out of some 300,000 compounds screened, about 3,700 (1.2%) were called active. The shares of active, inactive and inconclusive entries below differ from those in the screen. Calls come from the whole dose curve; tested in HEK293 cells. Potencies beside an inconclusive call are fits to weak or partial responses and may not hold up.
% is set by controls: 0 for no effect and ±100 for the full control effect; potency is the fitted concentration of half-maximal effect.

Assay: qHTS for Inhibitors of binding or entry into cells for Lassa Virus; note: nearly all actives have a fitted effect of over 50% in size
Settings: Lassa virus pseudotype entry inhibition, cell reporter; activity change, negative = inhibition: at 37.9 µM (top of the series) unless noted
In the case of `COc1ccc(NC(=O)c2cnc(SC)n2-c2ccc(F)cc2)c(OC)c1`, the Potency is reported as inconclusive: 0.501 µM [inhibitor, partial curve, poor fit].
In the case of `Brc1csc(/C=N/Nc2nc3ccccc3s2)c1`, the Potency is reported as inconclusive: 35.5 µM [inhibitor, single point].
For `COc1cc2c(cc1NC(=O)c1cccc(F)c1)CCCC2`, the Potency was “inactive”.
In the case of `O=c1c2[nH]c3ccc(F)cc3c2ncn1C1CCCCC1`, the Potency is reported as inconclusive: 5.62 µM [activator, partial curve, poor fit].
In the case of `N#CC(C#N)=c1ccc2c(c1)NC1(CCCCC1)N=2`, the Potency is reported as inconclusive: 14.1 µM [inhibitor, single point].
In the case of `COc1cc(NC(=O)CCNS(=O)(=O)c2ccc3c(c2)CCN3C(=O)C2CC2)cc(OC)c1`, the Potency is reported as inconclusive: 2.82 µM [activator, partial curve, poor fit].
For `C/C(CS(=O)(=O)c1ccc(Cl)cc1)=N/NC(N)=S`, the Potency was inconclusive: 10 µM [inhibitor, partial curve].
With `COc1cc(-c2noc(-c3ccc(NCCc4ccccc4)c([N+](=O)[O-])c3)n2)cc(OC)c1OC` the Potency was “inactive”.
With `CC1(C)Cc2c(C#N)c(NCc3ccco3)nc(-c3ccco3)c2CO1` the Potency was “inactive”.
With `COC(=O)c1ccccc1NCc1cc(=O)oc2cc(O)c(O)cc12` the Potency was inconclusive: 20 µM [inhibitor, single point].
With `O=C(N/N=C/c1cccc2ccccc12)c1n[nH]c2c1CCCC2` the Potency was “inactive”.
For `Cc1cc2ccccn2c1C(=O)c1ccc(NN)c([N+](=O)[O-])c1`, the Potency was inconclusive: 11.2 µM [inhibitor, partial curve].
For `CC(=O)Nc1ccc(S(=O)(=O)Nc2cc(C)c(-n3nc4ccccc4n3)cc2O)cc1`, the Potency was inconclusive: 6.51 µM [inhibitor, partial curve, poor fit].
With `COc1ccc(-c2cc(C(F)(F)F)nc(N3CCN(Cc4ccccc4)CC3)n2)cc1OC` the Potency was inconclusive: 29.1 µM [inhibitor, single point].
For `CCCN(CC(=O)Nc1ccccc1C)C(=O)c1ccc(S(=O)(=O)N2CCCCCC2)cc1`, the Potency was “inactive”.
In the case of `COc1cc(SC)ccc1C(=O)Nc1ccon1`, the Potency is reported as inconclusive: 6.51 µM [activator, single point].
With `CC(=O)c1cccc(NC(=O)N2CCCC(C(=O)c3cc(F)ccc3F)C2)c1` (configuration not stated) the Potency was inconclusive: 32.6 µM [inhibitor, single point].
With `CCCN(CCC)CC(O)Cn1cc(/C=C/C(=O)c2cccs2)c2ccccc21` (configuration not stated) the Potency was inconclusive: 35.5 µM [inhibitor, single point].
In the case of `COc1cc(/C=C2/NC(=O)N(Cc3ccccc3F)C2=O)cc(OC)c1OC`, the Potency is reported as inconclusive: 35.5 µM [inhibitor, single point].
In the case of `CN(c1ccccc1)S(=O)(=O)c1ccc(C(=O)NCCc2ccccc2)cc1`, the Potency is reported as inconclusive: 12.6 µM [inhibitor, partial curve, poor fit].
In the case of `CCOC(=O)CN1C(=O)C(C)(C)Oc2ccc(C(=O)Nc3ccccc3)cc21`, the Potency is reported as “inactive”.
With `CNC(=O)/C=C1\NC(C)(C)Cc2c1ccc1ccccc21` the Potency was “inactive”.
For `O=C(CSC1=NS(=O)(=O)c2cc(F)ccc2N1)Nc1ccc(F)cc1`, the Potency was inconclusive: 5.01 µM [activator, partial curve, poor fit].
In the case of `O=C(C1CC1)N1CCc2cc(S(=O)(=O)N3CCCc4ccccc43)ccc21`, the Potency is reported as inconclusive: 29.1 µM [inhibitor, single point].
With `O=[N+]([O-])c1ccc2[nH]cc(S(=O)(=O)N3CCN(c4cccc(Cl)c4)CC3)c2c1` the Potency was inconclusive: 11.2 µM [inhibitor, partial curve, poor fit].
In the case of `Cc1nn(C)c(Oc2ccccc2)c1CCNS(=O)(=O)c1ccccc1`, the Potency is reported as inconclusive: 29.1 µM [inhibitor, single point].
For `C/C(=N\NC(=O)c1cc(C2CC2)nc2ccccc12)c1ccc(O)cc1O`, the Potency was inconclusive: 8.91 µM [inhibitor, partial curve, poor fit].
In the case of `CCN(CCO)c1ccc(N=Nc2cc(C)[nH]n2)cc1`, the Potency is reported as inconclusive: 1 µM [inhibitor, full curve, poor fit].
In the case of `Cc1ccc(OCC(O)CN2CC3(C)CC2CC(C)(C)C3)cc1` (configuration not stated), the Potency is reported as inconclusive: 3.55 µM [inhibitor, single point].
For `CC(C)(C)C1CCc2c(sc(NC(=O)c3ccccc3F)c2C(=O)N2CCCCC2)C1` (configuration not stated), the Potency was inconclusive: 11.2 µM [activator, partial curve, poor fit].
With `CN1CCN(C(CNC(=O)C(=O)Nc2ccc3c(c2)OCCO3)c2ccc(F)cc2)CC1` (configuration not stated) the Potency was inconclusive: 11.2 µM [inhibitor, single point].
With `COc1cccc(NC(=O)CN(C)C(=O)CCCc2nc3ccccc3s2)c1` the Potency was “inactive”.
In the case of `O=C(N/N=C/c1cccc([N+](=O)[O-])c1)c1cccs1`, the Potency is reported as “inactive”.
In the case of `Cc1ccc(S(=O)(=O)Cn2nnnc2C(c2ccccn2)N2CCN(c3ccccc3)CC2)cc1` (configuration not stated), the Potency is reported as inconclusive: 25.9 µM [inhibitor, single point].
In the case of `CCOC(=O)c1c(C)oc2c1c(C=NCCO)c(O)c1ccccc12`, the Potency is reported as inconclusive: 8.91 µM [inhibitor, partial curve, poor fit].
With `CCOc1ccc(-c2nonc2NC(=O)c2ccccc2C)cc1` the Potency was “inactive”.
With `COc1cccc(-n2nnnc2SCC(=O)N2CCCc3ccccc32)c1` the Potency was inconclusive: 29.1 µM [inhibitor, single point].
For `Cc1cc2c(cc1S(=O)(=O)Nc1cccc(C(F)(F)F)c1)OCCN2C`, the Potency was inconclusive: 1.12 µM [inhibitor, full curve, poor fit].
In the case of `O=C(CCN1C(=O)c2ccccc2C1=O)CN1CCOCC1`, the Potency is reported as inconclusive: 35.5 µM [activator, single point].
In the case of `O=C(NCCc1ccc(Cl)cc1)c1ccc2nc(Cc3ccccc3)oc2c1`, the Potency is reported as inconclusive: 22.4 µM [inhibitor, single point].
For `O=C(NCCCN1CCOCC1)C1CCN(S(=O)(=O)c2c(Cl)cccc2Cl)CC1`, the Potency was “inactive”.
In the case of `Cc1cc(C)c(NC(=O)CSc2nc(=O)n(Cc3ccco3)c3c2CCC3)c(C)c1`, the Potency is reported as “inactive”.
In the case of `COc1ccc(-c2nn(CCC(=O)O)cc2/C=C2\SC(N)=NC2=O)cc1`, the Potency is reported as inconclusive: 1.41 µM [activator, partial curve].
With `CN(CC(=O)Nc1cccc(F)c1)C(=O)/C=C/c1ccc2ccccc2n1` the Potency was inconclusive: 1 µM [activator, full curve, poor fit].
In the case of `COC(=O)c1ccccc1NC(=O)CN1CCCCC1`, the activity change, negative = inhibition is reported as inconclusive: 1.36% [activator].
For `COc1cccc(-c2nc(SCc3cc(=O)c4cc(Cl)ccc4[nH]3)n[nH]2)c1`, the Potency was inconclusive: 12.6 µM [activator, single point].
For `O=C(NCCC1CCCCN1S(=O)(=O)c1cccs1)C(=O)Nc1ccc(F)cc1F` (configuration not stated), the Potency was inconclusive: 7.94 µM [inhibitor, partial curve].
With `CC(Sc1ccccc1)C(=O)Nc1ccc(S(=O)(=O)N2CCOCC2)cc1` (configuration not stated) the Potency was “inactive”.
For `O=C(O)Cc1sc(-c2ccccc2)nc1-c1ccccc1`, the Potency was “inactive”.
In the case of `COc1ccccc1-c1ccc(=O)n(CC(=O)NCc2cccs2)n1`, the Potency is reported as inconclusive: 6.31 µM [activator, single point].
In the case of `Cc1nc(N2CCN(c3ccccn3)CC2)c2c(C)c(C(=O)N3CCN(c4ccc(F)cc4)CC3)sc2n1`, the Potency is reported as inconclusive: 35.5 µM [inhibitor, single point].
For `CC(=O)CC(=O)Nc1cccc2c1CCCC2`, the Potency was inconclusive: 8.91 µM [inhibitor, partial curve, poor fit].
For `CCOC(=O)c1c(NC(=O)c2cc(-c3ccccc3)on2)sc2c1CCCC2`, the Potency was “inactive”.
For `Cc1ccc(C(=O)N/C(=C\c2ccc(-c3ccc([N+](=O)[O-])cc3)o2)C(=O)NC2CCS(=O)(=O)C2)cc1` (configuration not stated), the Potency was inconclusive: 35.5 µM [inhibitor, single point].
In the case of `CCc1nnc(NC=C2C(=O)OC(C)(C)OC2=O)s1`, the Potency is reported as “inactive”.
For `C=C(C)c1cccc(C(C)(C)NC(=O)NCc2ccc(OC)c(OC)c2)c1`, the Potency was “inactive”.
With `CCn1nc(C(=O)OCC(=O)Nc2nc(-c3ccc(OC)cc3)cs2)c2ccccc2c1=O` the Potency was inconclusive: 6.51 µM [activator, single point].
For `C1CCC2(CC1)C1=C(CCCC1)Nc1nnnn12`, the Potency was “inactive”.
With `O=C(Nc1cccc(S(=O)(=O)N2CCCC2)c1)c1ccc2c(=O)n3c(nc2c1)CCCCC3` the Potency was active: 20.6 µM.
In the case of `Cc1ccc(Nc2ncc(C(=O)NCCCN3CCN(C)CC3)c3ccccc23)cc1Cl`, the Potency is reported as inconclusive: 10 µM [inhibitor, partial curve, poor fit].
With `CCOc1ccc(N2C(=O)c3cccnc3C2Nc2ccc(C)c(C)c2)cc1` (configuration not stated) the Potency was “inactive”.
In the case of `O=C1C2CC=C(Cl)CC2C(=O)N1CN(Cc1ccco1)CN1C(=O)C2CC=C(Cl)CC2C1=O` (configuration not stated), the Potency is reported as “inactive”.
With `O=C(COc1ccc(Cl)cc1)Nc1ccccc1C(=O)NCc1ccco1` the Potency was inconclusive: 32.6 µM [inhibitor, partial curve, poor fit].
In the case of `Fc1ccc(-c2csc(-c3nc(-c4ccc(Br)s4)cs3)n2)cc1`, the Potency is reported as inconclusive: 1.78 µM [inhibitor, partial curve, poor fit].
In the case of `Cc1c(C(=O)OCCOc2ccccc2)[nH]c2c1C(=O)CCC2`, the Potency is reported as active: 7.94 µM.
With `CCOc1ccc(-c2cc3c(=O)n(CC(=O)Nc4c(C)cccc4C)ccn3n2)cc1` the Potency was “inactive”.
For `Cc1ccc2[nH]c(CSc3nnc(NC(=O)COc4ccccc4F)s3)cc(=O)c2c1`, the Potency was inconclusive: 0.562 µM [activator, full curve, poor fit].
